In the supplement of paper PMC8732350:
Where a name gives a salt, the structure may show the parent alone. ± gives the standard deviation of the averaged measurements. Some of the results follow. Repeats in this data set agree poorly, so a single value says little.

Each compound was assayed on A549 (assay: surface PD-L1 immunofluorescence intensity relative to IFN-gamma-only control (ratio); higher = more PD-L1 expression). Conditions: 10 µM; exposure time 24 h; IFN-gamma 100 ng/mL.

| Compound | surface PD-L1 immunofluorescence intensity |
| --- | --- |
| O=C(O)[C@H]1/C(=C/CO)O[C@@H]2CC(=O)N21 [Clavulanate potassium salt] | 0.947 |
| O=C(OCCOCCO)c1ccccc1Nc1cccc(C(F)(F)F)c1 [Etofenamate] | 1.09 |
| CC(=O)Oc1ccccc1C(=O)Oc1cccc(CO[N+](=O)[O-])c1 | 1.08 |
| Cc1cnc(C(=O)O)c[n+]1[O-] [Acipimox] | 1.05 |
| O=c1c(O)c(-c2ccc(O)c(O)c2)oc2cc(O)cc(O)c12 [Quercetin (Sophoretin)] | 0.967 |
| O=c1c(O)c(-c2ccc(O)c(O)c2)oc2cc(O)cc(O)c12 [Quercetin] | 1.04 ± 0.092 |
| O=C(O)C1(C(=O)O)CCC1.[NH2-].[NH2-].[Pt+2] [Carboplatin] | 1 |
| O=C1c2ccccc2S(=O)(=O)N1CCCCN1CCN(c2ncccn2)CC1 [Ipsapirone] | 0.9884 ± 0.0014 |
| Cn1c([N+](=O)[O-])cnc1COC(N)=O [Ronidazole] | 0.985 |
| CN(C)[C@@H]1C(O)=C(C(N)=O)C(=O)[C@@]2(O)C(O)=C3C(=O)c4c(O)ccc(Cl)c4[C@@H](O)[C@H]3C[C@@H]12 [Demeclocycline hydrochloride] | 1.04 |
| O=C(O)CCC/C=C\C[C@@H]1CO[C@H](C(F)(F)F)O[C@@H]1c1ccccc1O | 0.883 |
| CC[C@@H]1/C=C(\C)C[C@H](C)C[C@H](OC)[C@H]2O[C@@](O)(C(=O)C(=O)N3CCCC[C@H]3C(=O)O[C@H](/C(C)=C/[C@@H]3CC[C@H](Cl)[C@H](OC)C3)[C@H](C)[C@@H](O)CC1=O)[C@H](C)C[C@@H]2OC [Pimecrolimus] | 1.14 |
| CC(Oc1ccccc1)C(=O)N[C@@H]1C(=O)N2[C@@H]1SC(C)(C)[C@@H]2C(=O)O (some centres undefined) [Phenethicillin potassium salt] | 1.06 |
| O=C(O)c1cc(O)c2ccc(Cl)cc2n1 [7-Chlorokynurenic acid] | 1.09 |
| COc1ccc(C(=O)NCc2ccc(OCCN(C)C)cc2)cc1OC [Itopride] | 0.966 |
| N[C@@H](C(=O)N[C@@H]1C(=O)N2C(C(=O)O)=C(Cl)CS[C@H]12)c1ccccc1 [Cefaclor hydrate] | 1 |
| OC[C@H]1NC[C@@H](O)[C@@H](O)[C@@H]1O [1-Deoxymannojirimycin hydrochloride] | 0.992 |
| CCCc1nc(C(C)(C)O)c(C(=O)O)n1Cc1ccc(-c2ccccc2-c2nnn[nH]2)cc1 [Olmesartan] | 1.13 |
| N=C(N)N/N=C/c1c(Cl)cccc1Cl [Guanabenz acetate] | 1.06 |
| N[C@H](C(=O)O)[C@H](OCc1ccccc1)C(=O)O (racemic) | 0.94 |

In a second layout: entries from further up.
Compound | surface PD-L1 immunofluorescence intensity
O=C(O)CCC/C=C\C[C@@H]1CO[C@H](C(F)(F)F)O[C@@H]1c1ccccc1O | 0.883
N[C@H](C(=O)O)[C@H](OCc1ccccc1)C(=O)O (racemic) | 0.94

The listing continues:

| Compound | surface PD-L1 immunofluorescence intensity |
| --- | --- |
| CC(C)(C)c1cc(O)ccc1O [tert-Butylhydroquinone] | 0.945 |
| CN(C)CCOC(=O)COc1ccc(Cl)cc1 [Meclofenoxate hydrochloride] | 1.06 |
| Brc1c(NC2=NCCN2)ccc2nccnc12 | 1.01 |
| Brc1c(NC2=NCCN2)ccc2nccnc12 [UK 14,304 tartrate] | 0.974 |
| CCC(=O)NC[C@H](Cc1ccc(OCCc2nc(-c3ccccc3)oc2C)cc1)N/C(C)=C\C(=O)c1ccc(C(F)(F)F)cc1 | 1.24 |
| Nc1cc(-c2ccncc2)c[nH]c1=O [Amrinone] | 0.949 |
| CCOC(=O)c1c(C)n(C)c2ccc(O)cc12 [Mecarbinate] | 1.07 |
| COc1ccc(C[C@@H]2c3cc(OC)c(OC)cc3CC[N@+]2(C)CCC(=O)OCCCCCOC(=O)CC[N@@+]2(C)CCc3cc(OC)c(OC)cc3[C@H]2Cc2ccc(OC)c(OC)c2)cc1OC [Cisatracurium besylate (Nimbex)] | 1.16 |
| CC(N)C12CC3CC(CC(C3)C1)C2 (centres undefined) [Rimantadine Hydrochloride] | 1.13 |
| CN(CCOc1ccc(CC2SC(=O)NC2=O)cc1)c1ccccn1 (centres undefined) [Rosiglitazone Hydrochloride] | 1.07 |
| CN(CCOc1ccc(CC2SC(=O)NC2=O)cc1)c1ccccn1 (centres undefined) [Rosiglitazone maleate] | 0.98 |
| CCC(=O)OCC(=O)[C@@]1(OC(=O)CC)[C@H](C)C[C@H]2[C@H]3[C@H]([C@@H](O)C[C@@]21C)[C@@]1(C)C=CC(=O)C=C1C[C@H]3Cl [Alclometasone dipropionate] | 0.803 |
| c1ccc2nc(C3=NCCN3)cnc2c1 [BU 239 hydrochloride] | 1.12 |
| Cc1cc(-n2c(=O)[nH]c(=O)n(C)c2=O)ccc1Oc1ccc(SC(F)(F)F)cc1 [Toltrazuril] | 1.07 |
| CC(C)CCC[C@@H](C)[C@H]1CC[C@H]2[C@@H]3C(=O)C=C4C[C@@H](O)CC[C@]4(C)[C@H]3CC[C@]12C [7-Ketocholesterol] | 0.951 |
| Cc1ccccc1N1C(=O)c2cc(S(N)(=O)=O)c(Cl)cc2NC1C (centres undefined) [Metolazone] | 0.903 |
| COc1c(OCCCN2CCOCC2)ccc2c1N=C(NC(=O)c1cnc(N)nc1)N1CCN=C21 | 0.902 |
| O=C1N(c2ccccc2)c2ccccc2C1(Cc1ccncc1)Cc1ccncc1 [Linopirdine dihydrochloride] | 0.91 |
| OCCOCCN1CCN(C(c2ccccc2)c2ccc(Cl)cc2)CC1 (centres undefined) [Hydroxyzine dihydrochloride] | 0.928 |
